Measured values as given in patent US20260242438A1 (INSTITUTE OF MATERIA MEDICA, CHINESE ACADEMY OF MEDICAL …, priority 2022, published 2026).
At least one peptide structure holds a part that was inferred or is arguable (an end, a ring closure or a residue). Where a SMILES comes first, the peptide text is derived from it. Bridges are numbered along the chain shown (N, C = ends). [ ]: non-standard residue; d: D form. Abu = CC[C@H](N)C(=O)O

Molecular target: chymotrypsin (Bos taurus, UniProt P00766)
Test: Determination of enzyme inhibitory activity against chymotrypsin (substrate AAPFpNA, OD 405 nm)
Assay type: biochemical
Procedure: The substrates N-succinyl-Ala-Ala-Pro-Phe-p-nitroaniline (AAPFpNA) is used in competitive binding reaction to determine the inhibitory activities against α -chymotrypsin. Experiments for a-chymotrypsin was measured in 20 mM CaCl2, 50 mM Tris-HCl buffer (pH 7.8). The concentration of the peptide was measured using optical density (OD) at 280 nm. The Michaelis constant (Km) of the enzyme hydrolysis substrate is calculated from the initial rate of substrate hydrolysis at 405 nm. The absorbance value of the substrate was measured at 405 nm after complete hydrolysis. All data were processed using nonlinear regression.
(1) Added a total 190 μL of reaction buffer (20 mM CaCl2, 50 mM Tris-HCl (pH 7.8)), different concentrations of anti-chymorypsin peptides (CHs) into the pre-cold 96 well plate, followed by preheating at 37° C. for 5 min and centrifugated at 500 rpm for 1 min and allowed to stand for 4 minutes. Then added 8 μL of 750 nM chymotrypsin and incubated at 37° C. for 10 min, and centrifugated at 500 rpm for 1 min and allowed to stand for 9 minutes. Finally, added 2 μL of 50 mM AAPFpNA, and mixed by centrifugation at 500 rpm for 1 min. The plate was incubated at 37° C. for 90 min, and the absorbance value at 405 nm was measured. […]

CC[C@@H]1NC(=O)[C@H](CCCNC(=N)N)NC(=O)CNC(=O)[C@@H](N)CSSC[C@@H](C(=O)N[C@@H](Cc2ccccc2)C(=O)O)NC(=O)[C@H]([C@@H](C)CC)NC(=O)[C@@H]2CCCN2C(=O)[C@@H]2CCCN2C(=O)[C@H]([C@@H](C)CC)NC(=O)[C@H](CO)NC(=O)[C@H](Cc2ccc(O)cc2)NC(=O)[C@H]([C@@H](C)O)NC1=O [CH68] (H-CGR[Abu]TYSIPPICF-OH; disulfide 1-12; C-terminus assumed)
IC50 (chymotrypsin 30 nM, AAPFpNA 0.5 mM, pH 7.8, 37° C.): 450 nM
Ki (from IC50/(1+S/Km), S 0.5 mM, Km 0.38 mM): 190 nM
